The other results are listed elsewhere or left out.

Chains of the proteins cited; added tags and fusions are not shown.
UniProt Q0JBA9, entry or part of it: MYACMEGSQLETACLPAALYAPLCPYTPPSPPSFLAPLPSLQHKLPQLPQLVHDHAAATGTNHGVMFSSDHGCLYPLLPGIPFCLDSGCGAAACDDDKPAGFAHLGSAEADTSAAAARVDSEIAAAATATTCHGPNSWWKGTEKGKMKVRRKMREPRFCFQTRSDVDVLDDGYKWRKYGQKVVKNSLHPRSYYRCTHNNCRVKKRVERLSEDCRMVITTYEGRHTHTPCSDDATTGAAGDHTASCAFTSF

The assay concerns the target OsWRKY34 (Oryza sativa, UniProt Q0JBA9 1-250). The experiment in a line: protein-binding microarray (RPBM); PBS, 2% BSA, 51.3 ng/ul salmon testes DNA, 50 uM zinc acetate, 200 nM TF, 25 C, 1 h; high values mean tight binding. The following applies: protein: recombinant; tags: N-terminal polyhistidine and DsRed monomer fusion (pET32a); label: CyDye5-dUTP incorporated in the synthesized complementary strand; 3' TTTTT single-stranded linker to array surface; dsDNA, one strand shown. A digest of the protocol: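 A custom Agilent array was converted to double-stranded form by primer extension with Cy5-dUTP and blocked with 2% BSA. Protein at 200 nM in PBS with 2% BSA, salmon testes DNA and 50 µM zinc acetate was applied for 1 h at 25 °C, followed by washing. The proteins were polyhistidine–DsRed N-terminal fusions of transcription factors, expressed in E. coli BL21-CodonPlus and Ni–NTA-purified. The binding signal is per-feature fluorescence intensity (arbitrary units) from an Axon 4000B scanner.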
For “TCTCCGTCATCCTCAACCTCGCCGCCGGTCATAGTGACGACGGAGTCACCTAGTGCAG”, the binding signal was 8640 fluorescence intensity (a.u.).
On to “TGCGAATGTTCTCTTGTATTCATGCTTTTGACATGCTATTCGGAGTCACCTAGTGCAG”, for which the binding signal was 8340 fluorescence intensity (a.u.).
Turning to “ATAGTGTTAATCTGGATCTCATGTTTTTATGCCTGACATTCGGAGTCACCTAGTGCAG”, the binding signal was 9050 fluorescence intensity (a.u.).
Turning to “GAAGAGCATTAGGCTTGTATATGTTAGGTTTGATCTTTTTCGGAGTCACCTAGTGCAG”, the binding signal was 8410 fluorescence intensity (a.u.).
“TCTATCATAATCCCTGTACTTTTCTTGTTCCTCCCTTTTTCGGAGTCACCTAGTGCAG”: the binding signal is 8340 fluorescence intensity (a.u.).
As to “CTGGCGCTGGGGAGGGGATGGATGCGGCGGCCGGCAACTCCGGAGTCACCTAGTGCAG”, the binding signal was 10800 fluorescence intensity (a.u.).
Under “ATCTCCATCACAGCATCCGACGACGACGCCGCCGCGGCGGCGGAGTCACCTAGTGCAG” stands 8950 fluorescence intensity (a.u.); under “AATTTGCATTCATACCCATATCCCTTTCTCACTTTCTCAGCGGAGTCACCTAGTGCAG”, 8750 fluorescence intensity (a.u.).
Turning to “AACCGTAGCCATTCATCTATGATTTCCATTTTGACATTATCGGAGTCACCTAGTGCAG”, the binding signal is 8290 fluorescence intensity (a.u.).
The value for “CTGCACCTCTGCTTCAAATTTGGGTCACCGTTGTTTCTCCCGGAGTCACCTAGTGCAG” was 9110 fluorescence intensity (a.u.); that for “CGCCACCACCACCACCACCCACCCCTTCCCTTCTTCCATCCGGAGTCACCTAGTGCAG” was 9200 fluorescence intensity (a.u.); that for “CCGAGCACCCACCCGCCGCCGCCGCCGTCGCCGATTCATGCGGAGTCACCTAGTGCAG” was 9080 fluorescence intensity (a.u.).
With “CCCTTTTTCCACTTCTTTTTAAACTTTTTCTCACCTTTGACGGAGTCACCTAGTGCAG”, the binding signal is 9590 fluorescence intensity (a.u.).
As to “ACACGCACGCGCCACACGCCGCCGCTCTCTGTCTCTGTCTCGGAGTCACCTAGTGCAG”, the binding signal is 9900 fluorescence intensity (a.u.).
As for “GTTGCTACAGCATGTGAAATGTGATATGTTATGCTGCTGTCGGAGTCACCTAGTGCAG”, the binding signal was 9030 fluorescence intensity (a.u.).
In the case of “CGCTACCGGGTTGACTTTTTCCTATCCGTTTCTGGTCCGGCGGAGTCACCTAGTGCAG”, the binding signal is 22800 fluorescence intensity (a.u.).
On to “CAGCAGCATGACCCGTTCCTGGCCGCCTACGTGGCGTGCACGGAGTCACCTAGTGCAG”, for which the binding signal was 9620 fluorescence intensity (a.u.).
Take “CAAACCGGATGTAAGGCGATTGATGTTCGAGGTGTTTGACCGGAGTCACCTAGTGCAG”: the binding signal was 10700 fluorescence intensity (a.u.).
As to “CGCGAACCCAACCTTGCTCGATCGTACGTGTTGCCGTAGCCGGAGTCACCTAGTGCAG”, the binding signal is 9330 fluorescence intensity (a.u.).
Regarding “TCTCGACTCTGGACCTCTCCTCTCCACGCCGACCGCCATGCGGAGTCACCTAGTGCAG”, the binding signal is 8500 fluorescence intensity (a.u.).
The value for “TCCGCCGTCATCGCATCCGTCGTCTCACCGCCACCGATTCCGGAGTCACCTAGTGCAG” was 10100 fluorescence intensity (a.u.); that for “GCTCATCACGGGCCAAGCCGCTGGTTTTTCTTCCCATTTTCGGAGTCACCTAGTGCAG” was 8080 fluorescence intensity (a.u.).
The value for “TATGGTTGGGGATGATTTTGTATCTTAGATGACAAGTTGACGGAGTCACCTAGTGCAG” was 11700 fluorescence intensity (a.u.).
Take “TCTACTGACATCGTTTAATTTTCTATTCTCGATTTTTTGACGGAGTCACCTAGTGCAG”: the binding signal was 8960 fluorescence intensity (a.u.).
“TCTACCAACCCACCCGTGCTCTCTCCTGCCGTGCTCGTCGCGGAGTCACCTAGTGCAG”: the binding signal is 11500 fluorescence intensity (a.u.).
On to “ATCATGACCACAACTGCTGCTGCTGCTACCATCCAAATGTCGGAGTCACCTAGTGCAG”, for which the binding signal is 10200 fluorescence intensity (a.u.).
The value for “GATTGTTTTATCGTTCATAGTACTTTAAGTGTAATTTATACGGAGTCACCTAGTGCAG” was 10300 fluorescence intensity (a.u.); that for “TGAACCTTGGAAAATCACATCGTTGTCTGCTTTCTCATCACGGAGTCACCTAGTGCAG” was 8070 fluorescence intensity (a.u.).
Under “TTTTCTGGGCACATGTTCGTTGTTGTTATCGTCACGTATCCGGAGTCACCTAGTGCAG” stands 11500 fluorescence intensity (a.u.); under “CAGCAAGAGCTATAACATCCATCCATCCATCTATTCGCTTCGGAGTCACCTAGTGCAG”, 9610 fluorescence intensity (a.u.); under “CAACTATCCCATAACCACTGTAGCAGGTCAAATTCAATTACGGAGTCACCTAGTGCAG”, 10100 fluorescence intensity (a.u.).
As to “CTCTTGACCAGCCGAGCGCACCGTCATCAGGCTACATCTCCGGAGTCACCTAGTGCAG”, the binding signal is 8280 fluorescence intensity (a.u.).
Regarding “GATTCGTAAATTGAAGTGTGTCGTAAGTTCTGTTGAGTTCCGGAGTCACCTAGTGCAG”, the binding signal was 8580 fluorescence intensity (a.u.).
Consider “CGTCGCTTGCCCCGACGACCACCGTGTCCGCGCTCGCCTTCGGAGTCACCTAGTGCAG”, for which the binding signal was 8530 fluorescence intensity (a.u.).
Consider “AGTAGTATCATCTCTCTCTGTCTGTATCTTCACCTGTATCCGGAGTCACCTAGTGCAG”, for which the binding signal was 8150 fluorescence intensity (a.u.).
For the sequence “TAATTAACTCACGACGACTCGTTCATTATTGCCGTTTACTCGGAGTCACCTAGTGCAG”, the binding signal was 8320 fluorescence intensity (a.u.).
With “TACGTCGTATTATATCCTGAACATCGATCGCTATTGACGACGGAGTCACCTAGTGCAG”, the binding signal is 10100 fluorescence intensity (a.u.).
Under “AACCTTGAAATTTGAAGTATAACACTGCCATCATTTGCTTCGGAGTCACCTAGTGCAG” stands 8960 fluorescence intensity (a.u.); under “CGTTAGGTTTTGAAGCTGGGAGGGGCGGAGGGCAGCGATTCGGAGTCACCTAGTGCAG”, 12500 fluorescence intensity (a.u.); under “GTTGCTTTTGCTGGAGTAGTACTTCTATTTATCTTCAAACCGGAGTCACCTAGTGCAG”, 9100 fluorescence intensity (a.u.).
Consider “GATATATTCCCTTGCAACTAGGGGTGAAAATGGGGCGGGTCGGAGTCACCTAGTGCAG”, for which the binding signal is 12600 fluorescence intensity (a.u.).
Turning to “TCGTCGTTCTTGGCGCCACCACATCGCGGGAGATGAGCCACGGAGTCACCTAGTGCAG”, the binding signal was 8210 fluorescence intensity (a.u.).
